Experimental data published in the supplement of paper PMC9744312.
Structures can show the parent of a compound that is named as a salt. The list shows a part of the results. Single values of this set are uncertain.

system: Peyronie's disease tunica albuginea primary fibroblasts; experiment: cell viability (DRAQ5 nuclear stain) relative to TGF-beta1-only control; higher = more viable cells; conditions: 10 µM; TGF-beta1 10 ng/mL; 72 h

Question: Which cell viability does the source give for `OB1OCc2cc(F)ccc21` [Tavaborole (AN-2690)] here?
Answer: Its cell viability is 75.6%.

Question: Which cell viability does the source give for `CC[C@H]1OC(=O)[C@H](C)[C@@H](O[C@H]2C[C@@](C)(OC)[C@@H](O)[C@H](C)O2)[C@H](C)[C@@H](O[C@@H]2O[C@H](C)C[C@H](N(C)C)[C@H]2O)[C@](C)(O)C[C@@H](C)C(=O)[C@H](C)[C@H]2OC(=O)O[C@@]21C` [Erythromycin Cyclocarbonate] here?
Answer: Its cell viability is 86.3%.

Question: How did the cell viability turn out when `Cc1c(OCC(F)(F)F)ccnc1C[S@@+]([O-])c1nc2ccccc2[nH]1` [Dexlansoprazole] was run?
Answer: The cell viability was 83.5%.

Question: With `CC(C(=O)O)c1ccc(-c2ccccc2)c(F)c1` (stereo unspecified) [Flurbiprofen] as the molecule, how does the cell viability read?
Answer: Its cell viability is 101%.

Question: `NC(=O)c1cn(Cc2c(F)cccc2F)nn1` [Rufinamide] was tested. Which cell viability did it give?
Answer: Its cell viability is 104%.

Question: With `O=C(OCC(O)CO)c1ccccc1Nc1ccnc2cc(Cl)ccc12` (stereo unspecified) [Glafenine HCl] as the molecule, how does the cell viability read?
Answer: The cell viability was 87.3%.

Question: For `CC(=O)C1C(=O)C=C(C)OC1=O` (stereo unspecified) [Dehydroacetic acid], which cell viability is on record?
Answer: Its cell viability is 95.4%.

Question: For `Nc1nc2[nH]cnc2c(=S)[nH]1` [Thioguanine], which cell viability is on record?
Answer: Its cell viability is 91.1%.

Question: With `Cc1ccccc1C(=O)Nc1ccc(C(=O)N2CCCC(O)c3cc(Cl)ccc32)c(C)c1` (stereo unspecified) [Tolvaptan] as the molecule, how does the cell viability read?
Answer: The cell viability was 98.8%.

Question: Which cell viability does the source give for `CC(C)c1cc2c(cc1S(=O)(=O)O)[C@@]1(C)CCC[C@@](C)(C(=O)O)[C@@H]1CC2` [Ecabet sodium] here?
Answer: The cell viability was 92.8%.

Question: How did the cell viability turn out when `CO/N=C(\C(=O)N[C@@H]1C(=O)N2C(C(=O)O)=C(CSc3nnnn3C)CS[C@H]12)c1csc(N)n1` [Cefmenoxime hydrochloride] was run?
Answer: The cell viability was 98.3%.

Question: With `CC(C(=O)O)c1ccc2c(c1)[nH]c1ccc(Cl)cc12` (stereo unspecified) [Carprofen] as the molecule, how does the cell viability read?
Answer: Its cell viability is 99.7%.

Question: Which cell viability does the source give for `CC(C)(CO)c1cc2cc(NC(=O)C3(c4ccc5c(c4)OC(F)(F)O5)CC3)c(F)cc2n1C[C@@H](O)CO` [Tezacaftor(VX-661)] here?
Answer: Its cell viability is 89.4%.

Question: How did the cell viability turn out when `CC[C@@H]1C(=O)OC[C@@H]1Cc1cncn1C` [Pilocarpine HCl] was run?
Answer: The cell viability was 79.7%.

Question: `O=c1c(-n2ccnn2)c[nH]n1-c1cc(N2CCOCC2)ncn1` [Molidustat (BAY 85-3934)] was tested. Which cell viability did it give?
Answer: The cell viability was 81.3%.

Question: How did the cell viability turn out when `COc1cc2nccc(Oc3ccc(NC(=O)NC4CC4)c(Cl)c3)c2cc1C(N)=O` [lenvatinib Mesylate] was run?
Answer: Its cell viability is 90.6%.

Question: With `COc1cc2nccc(Oc3ccc(NC(=O)NC4CC4)c(Cl)c3)c2cc1C(N)=O` [Lenvatinib (E7080)] as the molecule, how does the cell viability read?
Answer: The cell viability was 62.5%.

Question: With `C[C@@H](O[C@H]1OCCN(Cc2nn(P(=O)(O)O)c(=O)[nH]2)[C@H]1c1ccc(F)cc1)c1cc(C(F)(F)F)cc(C(F)(F)F)c1` [Fosaprepitant dimeglumine salt] as the molecule, how does the cell viability read?
Answer: Its cell viability is 90.7%.

Question: `CCC(C)(Oc1ccc(C2(c3ccc(OC(C)(CC)C(=O)O)cc3)CCCCC2)cc1)C(=O)O` (stereo unspecified) [Clinofibrate] was tested. Which cell viability did it give?
Answer: The cell viability was 89.2%.

Question: `CC(O)Cn1cnc2c1c(=O)n(C)c(=O)n2C` (stereo unspecified) [Proxyphylline] was tested. Which cell viability did it give?
Answer: Its cell viability is 106%.

Question: For `CC(C)NC[C@@H](O)COc1ccc(CC(N)=O)cc1` [(R)-(+)-Atenolol HCl], which cell viability is on record?
Answer: Its cell viability is 113%.

Question: For `CO/N=C(\C(=O)N[C@@H]1C(=O)N2C(C(=O)[O-])=C(C[n+]3cccc4c3CCC4)CS[C@H]12)c1csc(N)n1` [Cefpirome sulfate], which cell viability is on record?
Answer: The cell viability was 94.4%.

Question: For `CS(=O)(=O)OCCCCOS(C)(=O)=O` [Busulfan], which cell viability is on record?
Answer: The cell viability was 93.4%.

Question: How did the cell viability turn out when `Cc1c(NC(=O)c2cccnc2)c(=O)n(-c2ccccc2)n1C` [Nifenazone] was run?
Answer: The cell viability was 94.3%.

Question: `CC(=C(CCOC(=O)C(C)C)SSC(CCOC(=O)C(C)C)=C(C)N(C=O)Cc1cnc(C)nc1N)N(C=O)Cc1cnc(C)nc1N` (stereo in doubt) [Sulbutiamine] was tested. Which cell viability did it give?
Answer: Its cell viability is 92.7%.

Question: For `CNC(=O)c1cc(Oc2ccc(NC(=O)Nc3ccc(Cl)c(C(F)(F)F)c3)cc2)ccn1` [Sorafenib], which cell viability is on record?
Answer: Its cell viability is 60.1%.

Question: Which cell viability does the source give for `CNC(=O)c1cc(Oc2ccc(NC(=O)Nc3ccc(Cl)c(C(F)(F)F)c3)cc2)ccn1` [Sorafenib Tosylate] here?
Answer: The cell viability was 100%.

Question: With `COc1cccc2c1C(=O)c1c(O)c3c(c(O)c1C2=O)C[C@@](O)(C(C)=O)C[C@@H]3O[C@H]1C[C@H](N)[C@H](O)[C@H](C)O1` [Daunorubicin HCl] as the molecule, how does the cell viability read?
Answer: The cell viability was 31.9%.

Question: How did the cell viability turn out when `C=CC1=C(C(=O)O)N2C(=O)[C@@H](NC(=O)/C(=N\O)c3csc(N)n3)[C@H]2SC1` [Cefdinir] was run?
Answer: The cell viability was 98%.

Question: `CN1C(CCl)Nc2cc(Cl)c(S(N)(=O)=O)cc2S1(=O)=O` (stereo unspecified) [Methyclothiazide] was tested. Which cell viability did it give?
Answer: The cell viability was 90.4%.

Question: Which cell viability does the source give for `Cc1cn([C@H]2C=C[C@@H](CO)O2)c(=O)[nH]c1=O` [Stavudine (d4T)] here?
Answer: The cell viability was 97.3%.

Question: Which cell viability does the source give for `CC[C@H](C)[C@@H]1NC(=O)[C@H](Cc2ccc(O)cc2)NC(=O)[C@@H](N)CSSC[C@@H](C(=O)N2CCC[C@H]2C(=O)N[C@@H](CC(C)C)C(=O)NCC(N)=O)NC(=O)[C@H](CC(N)=O)NC(=O)[C@H](CCC(N)=O)NC1=O` [Oxytocin (Syntocinon)] here?
Answer: The cell viability was 91.2%.

Question: `CC(=O)NS(=O)(=O)c1ccc(N)cc1` [Sulfacetamide Sodium] was tested. Which cell viability did it give?
Answer: The cell viability was 96%.

Question: With `CC(=O)NS(=O)(=O)c1ccc(N)cc1` [Sulfacetamide] as the molecule, how does the cell viability read?
Answer: The cell viability was 106%.

Question: How did the cell viability turn out when `CC(=O)NS(=O)(=O)c1ccc(N)cc1` [Sulfacetamide sodium salt hydrate] was run?
Answer: Its cell viability is 97.8%.

Question: How did the cell viability turn out when `CCN(CC)CC(=O)Nc1c(C)cccc1C` [Lidocaine hydrochloride] was run?
Answer: Its cell viability is 88.4%.

Question: How did the cell viability turn out when `CCN(CC)CC(=O)Nc1c(C)cccc1C` [Lidocaine] was run?
Answer: Its cell viability is 87.4%.

Question: `CCC(=O)O[C@@H]1CC(=O)O[C@H](C)C/C=C/C=C/[C@H](O)[C@H](C)C[C@H](CC=O)[C@H](O[C@@H]2O[C@H](C)[C@@H](O[C@H]3C[C@@](C)(O)[C@@H](OC(=O)CC)[C@H](C)O3)[C@H](N(C)C)[C@H]2O)[C@H]1OC` [Midecamycin] was tested. Which cell viability did it give?
Answer: The cell viability was 113%.

Question: For `CC(=O)c1cc2c(o1)C(=O)c1ccccc1C2=O` [Napabucasin], which cell viability is on record?
Answer: The cell viability was 18.6%.

Question: How did the cell viability turn out when `CC(=O)OCC(=O)[C@@]12OC(C)(C)O[C@@H]1C[C@H]1[C@@H]3C[C@H](F)C4=CC(=O)C=C[C@]4(C)[C@@]3(F)[C@@H](O)C[C@@]12C` [Fluocinonide] was run?
Answer: The cell viability was 76%.

Question: `c1ccc2c(CC3=NCCN3)cccc2c1` [Naphazoline HCl] was tested. Which cell viability did it give?
Answer: The cell viability was 92.1%.

Question: For `O=c1oc2c(O)c(O)cc3c(=O)oc4c(O)c(O)cc1c4c23` [Ellagic acid], which cell viability is on record?
Answer: The cell viability was 95.2%.

Question: `O=C1NS(=O)(=O)c2ccccc21` [Saccharin] was tested. Which cell viability did it give?
Answer: Its cell viability is 92.6%.

Question: For `CC(C)COc1ccc(CNC(=O)N(Cc2ccc(F)cc2)C2CCN(C)CC2)cc1` [Pimavanserin], which cell viability is on record?
Answer: Its cell viability is 59.5%.

Question: Which cell viability does the source give for `OCCN(CCO)c1nc(N2CCCCC2)c2nc(N(CCO)CCO)nc(N3CCCCC3)c2n1` [Dipyridamole] here?
Answer: The cell viability was 85.7%.

Question: How did the cell viability turn out when `CC[C@H](CO)Nc1nc(NCc2ccccc2)c2ncn(C(C)C)c2n1` [Roscovitine (Seliciclib,CYC202)] was run?
Answer: The cell viability was 64.9%.

Question: Which cell viability does the source give for `C[N+](C)(C)CC(=O)O` [Betaine] here?
Answer: Its cell viability is 95%.

Question: `C[C@]12CC[C@@H]3c4ccc(OC(=O)c5ccccc5)cc4CC[C@H]3[C@@H]1CC[C@@H]2O` [Estradiol Benzoate] was tested. Which cell viability did it give?
Answer: The cell viability was 26.9%.

Question: Which cell viability does the source give for `Cc1ccc(F)c(NC(=O)Nc2ccc(-c3cccc4[nH]nc(N)c34)cc2)c1` [Linifanib (ABT-869)] here?
Answer: The cell viability was 88.8%.

Question: How did the cell viability turn out when `CN1CCN(C(c2ccccc2)c2ccccc2)CC1` [Cyclizine 2HCl] was run?
Answer: Its cell viability is 92%.

Question: Which cell viability does the source give for `COC(=O)[C@@H]1CC2=CC(=O)CC[C@]2(C)[C@@]23O[C@@H]2C[C@@]2(C)[C@@H](CC[C@@]24CCC(=O)O4)[C@H]13` [Eplerenone] here?
Answer: Its cell viability is 97%.

Question: With `Cc1c(-c2cnccn2)ssc1=S` [Oltipraz] as the molecule, how does the cell viability read?
Answer: Its cell viability is 87.7%.

Question: How did the cell viability turn out when `CCN(CC)CCNC(C(=O)OCCC(C)C)c1ccccc1` (stereo unspecified) [Camylofin Chlorhydrate] was run?
Answer: Its cell viability is 59%.

Question: Which cell viability does the source give for `C[C@@H]1C[C@H]2[C@@H]3CCC4=CC(=O)C=C[C@]4(C)[C@@]3(F)[C@@H](O)C[C@]2(C)[C@@]1(O)C(=O)COP(=O)(O)O` [Dexamethasone Sodium Phosphate] here?
Answer: The cell viability was 82.7%.

Question: How did the cell viability turn out when `CC(C)OC(=O)OCOP(=O)(CO[C@H](C)Cn1cnc2c(N)ncnc21)OCOC(=O)OC(C)C` [Tenofovir Disoproxil Fumarate] was run?
Answer: Its cell viability is 85.3%.

Question: For `CC(C)(CO)C(O)C(=O)NCCC(=O)O` [Calcium D-Panthotenate], which cell viability is on record?
Answer: Its cell viability is 52.6%.

Question: How did the cell viability turn out when `N[C@@H](Cc1cc(I)c(Oc2ccc(O)c(I)c2)c(I)c1)C(=O)O` [Liothyronine Sodium] was run?
Answer: The cell viability was 82.8%.

Question: With `Nc1c2ccccc2nc2ccccc12` [9-Aminoacridine] as the molecule, how does the cell viability read?
Answer: Its cell viability is 49.2%.

Question: With `Cc1ccc(=O)n(-c2ccccc2)c1` [Pirfenidone] as the molecule, how does the cell viability read?
Answer: Its cell viability is 90.2%.

Question: `C[C@@H](O)[C@@H]1NC(=O)[C@H](CCCCN)NC(=O)[C@@H](Cc2c[nH]c3ccccc23)NC(=O)[C@H](Cc2ccccc2)NC(=O)[C@@H](NC(=O)[C@H](N)Cc2ccccc2)CSSC[C@@H](C(=O)N[C@H](CO)[C@@H](C)O)NC1=O` [Octreotide Acetate] was tested. Which cell viability did it give?
Answer: Its cell viability is 100%.

Question: For `C[C@H](CCC(=O)O)[C@H]1CC[C@H]2[C@@H]3[C@@H](O)C[C@@H]4C[C@H](O)CC[C@]4(C)[C@H]3CC[C@]12C` [Ursodiol], which cell viability is on record?
Answer: The cell viability was 74.6%.

Question: Which cell viability does the source give for `CC[C@H](C)[C@H](NC(=O)[C@H](Cc1ccc(O)cc1)NC(=O)[C@@H](NC(=O)[C@H](CCCN=C(N)N)NC(=O)[C@@H](N)CC(=O)O)C(C)C)C(=O)N[C@@H](Cc1cnc[nH]1)C(=O)N1CCC[C@H]1C(=O)N[C@@H](Cc1ccccc1)C(=O)O` [Angiotensin II human Acetate] here?
Answer: Its cell viability is 98.4%.

Question: Which cell viability does the source give for `O=C(CCCN1CCN(c2ccccn2)CC1)c1ccc(F)cc1` [Azaperone] here?
Answer: The cell viability was 90.4%.

Question: How did the cell viability turn out when `COCCCN1CCC(NC(=O)c2cc(Cl)c(N)c3c2OCC3)CC1` [Prucalopride Succinate] was run?
Answer: Its cell viability is 76.1%.

Question: For `COCCCN1CCC(NC(=O)c2cc(Cl)c(N)c3c2OCC3)CC1` [Prucalopride], which cell viability is on record?
Answer: Its cell viability is 100%.

Question: Which cell viability does the source give for `COC(=O)C1=C(C#N)NC(C)=C(C(=O)OC(C)C)C1c1cccc([N+](=O)[O-])c1` (stereo unspecified) [Nilvadipine] here?
Answer: Its cell viability is 91%.
